Experimental data reported in paper PMC8564675.
Results are given in words; binding and its absence hold for the method and conditions named. In cells and extracts the contact can be indirect. A yes stands for co-enrichment or nearness to the bait. Other partners may have been found. For some of these results: No binding means not detected with the bait.

Protein sequences, listed by entry. Tags and fused reporters are not part of them. Lines headed by an entry give the natural chain unless they say otherwise; changes in a name come on top.
UniProt Q9EQH4: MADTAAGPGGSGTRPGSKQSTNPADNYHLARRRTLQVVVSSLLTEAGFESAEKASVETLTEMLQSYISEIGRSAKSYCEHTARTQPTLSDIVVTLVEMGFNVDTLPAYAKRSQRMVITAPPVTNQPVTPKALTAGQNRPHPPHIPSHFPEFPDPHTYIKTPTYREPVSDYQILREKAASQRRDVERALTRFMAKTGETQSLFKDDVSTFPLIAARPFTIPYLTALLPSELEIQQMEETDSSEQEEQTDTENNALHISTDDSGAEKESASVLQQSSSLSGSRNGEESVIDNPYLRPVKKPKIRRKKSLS
UniProt Q8C092: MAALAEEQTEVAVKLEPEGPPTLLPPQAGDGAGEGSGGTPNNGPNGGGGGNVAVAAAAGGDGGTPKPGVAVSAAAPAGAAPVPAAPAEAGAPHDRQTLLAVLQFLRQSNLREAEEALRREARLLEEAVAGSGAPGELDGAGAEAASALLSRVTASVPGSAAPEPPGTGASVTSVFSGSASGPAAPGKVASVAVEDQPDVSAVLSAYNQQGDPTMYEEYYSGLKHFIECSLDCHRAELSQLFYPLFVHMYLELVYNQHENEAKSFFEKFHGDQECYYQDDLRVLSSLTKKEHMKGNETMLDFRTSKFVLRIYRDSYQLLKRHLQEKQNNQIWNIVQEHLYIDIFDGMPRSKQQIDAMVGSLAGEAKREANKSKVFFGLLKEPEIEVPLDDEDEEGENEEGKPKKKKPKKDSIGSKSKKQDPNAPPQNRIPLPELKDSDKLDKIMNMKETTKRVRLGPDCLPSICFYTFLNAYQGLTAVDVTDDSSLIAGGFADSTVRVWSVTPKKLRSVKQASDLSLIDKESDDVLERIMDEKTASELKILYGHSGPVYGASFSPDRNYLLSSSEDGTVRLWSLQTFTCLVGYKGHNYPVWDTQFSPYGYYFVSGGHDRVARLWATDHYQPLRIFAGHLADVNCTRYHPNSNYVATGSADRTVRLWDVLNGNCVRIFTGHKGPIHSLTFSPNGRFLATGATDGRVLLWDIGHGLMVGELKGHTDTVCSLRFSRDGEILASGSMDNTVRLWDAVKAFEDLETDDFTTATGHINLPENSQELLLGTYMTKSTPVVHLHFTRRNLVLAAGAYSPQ
UniProt Q62311: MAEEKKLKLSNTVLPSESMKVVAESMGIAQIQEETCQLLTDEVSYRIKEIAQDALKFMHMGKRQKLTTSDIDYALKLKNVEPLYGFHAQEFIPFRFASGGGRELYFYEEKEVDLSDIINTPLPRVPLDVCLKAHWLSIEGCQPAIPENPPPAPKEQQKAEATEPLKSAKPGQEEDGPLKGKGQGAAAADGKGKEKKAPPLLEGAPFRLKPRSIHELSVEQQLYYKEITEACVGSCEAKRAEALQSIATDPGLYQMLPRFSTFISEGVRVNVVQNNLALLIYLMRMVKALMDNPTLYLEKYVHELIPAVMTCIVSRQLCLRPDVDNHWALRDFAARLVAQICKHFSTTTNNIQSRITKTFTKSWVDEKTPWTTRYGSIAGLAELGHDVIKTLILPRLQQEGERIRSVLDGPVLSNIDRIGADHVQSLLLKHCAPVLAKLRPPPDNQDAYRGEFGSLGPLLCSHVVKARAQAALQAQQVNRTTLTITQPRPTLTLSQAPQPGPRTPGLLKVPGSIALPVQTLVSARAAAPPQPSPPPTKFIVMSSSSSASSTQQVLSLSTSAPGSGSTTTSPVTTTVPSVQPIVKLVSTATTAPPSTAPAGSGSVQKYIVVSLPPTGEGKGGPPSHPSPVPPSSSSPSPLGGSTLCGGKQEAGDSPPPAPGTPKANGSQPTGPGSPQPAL
UniProt Q8VI33: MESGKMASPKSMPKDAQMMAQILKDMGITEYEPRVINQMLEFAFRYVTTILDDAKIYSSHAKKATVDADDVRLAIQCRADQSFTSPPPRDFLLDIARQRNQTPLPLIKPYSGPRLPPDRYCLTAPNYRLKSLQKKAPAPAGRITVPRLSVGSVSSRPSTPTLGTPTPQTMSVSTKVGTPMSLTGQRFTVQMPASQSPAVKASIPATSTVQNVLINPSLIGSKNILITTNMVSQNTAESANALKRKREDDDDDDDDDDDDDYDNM
UniProt Q8K0H5: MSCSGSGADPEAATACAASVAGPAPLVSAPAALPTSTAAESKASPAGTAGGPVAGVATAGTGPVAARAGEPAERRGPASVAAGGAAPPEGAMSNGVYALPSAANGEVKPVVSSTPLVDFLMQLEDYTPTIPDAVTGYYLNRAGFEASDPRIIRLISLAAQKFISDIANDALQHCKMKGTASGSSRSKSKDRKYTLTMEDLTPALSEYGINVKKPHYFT

Legend:
Assay in all cases: affinity purification with mass spectrometry; anti-Flag IP from whole cell extracts of Dox-treated mouse ESCs expressing Flag-mTAF8 WT or deletions; washes with IP500 and IP100 buffer, elution with 0.1 M glycine pH 2.8; LC MS/MS, NSAF normalised to the bait
[1] = molecular target: Flag-tagged mouse TAF8 WT (mouse) (UniProt Q9EQH4)
[2] = molecular target: Flag-mTAF8Δ117–140 (mouse) (UniProt Q9EQH4)
[3] = molecular target: Flag-mTAF8Δ141–184 (mouse) (UniProt Q9EQH4)

Molecule | binding [1] | binding [2] | binding [3]
endogenous mouse TAF5 (from UniProt Q8C092 1-801) | binds | binds | no binding
endogenous mouse TAF6 (from UniProt Q62311 1-678) | binds | binds | no binding
endogenous mouse TAF9 (from UniProt Q8VI33 1-264) | binds |  | no binding
endogenous mouse TAF10 (from UniProt Q8K0H5 1-218) | binds |  | no binding
endogenous mouse TAF4b (protein, UniProt G5E8Z2 1-850) MPAGLTEPAGAAAPVVSSASGAVTMAPVAALPVRVEGTPVALGPVTKAPVSVCVESVAPQPLPAPVGTLVTKVVPVTALPKLGSPRLPAPQIVTVKTPGTTTIQLPANLQLPPGTVLIKSNSGQLMLVSPQQAVTGAKTTSNITPRPAVPANTQTVKICTVPNSSSQLMKKVTVAPVKNLTQIGTTVATTASSTSSGQPVALPSSVITVTPAKLVNTVSTLKSSSLGVLSTPSNDARLKAETSVAAQTALPPTVLENVKKCKNFLSMLIKLACSGSQSPEMGQNVKRLVEQLLDAEIEAEEFTRKLYIELKSAPQPHLVPFLKKSVVALRQLLPNSQSFIENCVKEVSGDVVISSCTMTTATSPVVTSTVSPVLVSGATAPRTLSVQQTLNPLAGPGVANTGVVTLHSVAPAAATGGTTAATVLLQTSKPLTTSVPNTVAAVSLQPENPVVSGAAVTLAIPSATFGEASATPLCLPSAKPAITSAGTKADKPAIGTPVQIVTQPSTLLPQAAGIPQTAKVKQLVVQQPSGSSVNHVTSISHSSPLSTQNCGQKTPVNAVMPTSSIIKQITLPGNKLLSLQAQRSSIQSNKIKENGPTCFRGEDDINDVTFMAEVNLDEENACILAAHSDFVGTLIQSCKEEPFLVIGALQKRILDIGKKHDITELNSDAVNLISHATQERLRGLLEKLTTIAQHRMTIYKGSENYILSTDTRSQLKFLEKLDQLEKQRKDLEEREMLLKAAKSRSNKEDPEQLRLKQKAKELQQLELAQIQYRDANLTALAAIGPRKKRPLESGNESFKDNPSTSGTSSLTATKPFRPRITRICLRDLIFCMEQEREMKYSRALYLALLK | binds | binds | no binding
endogenous mouse TAF12 (protein, UniProt Q8VE65 1-161) MNQFGPSALINLSSFSSVKPEPASTPPQGSMANSTTVGKIAGTPGTGGRLSPENNQVLTKKKLQDLVREVDPNEQLDEDVEEMLLQIADDFIESVVTAACQLARHRKSSTLEVKDVQLHLERQWNMWIPGFGSEEIRPYKKACTTEAHKQRMALIRKTTKK | binds | binds | no binding
